Source: the supplement of paper PMC12067093, “Discovery and optimisation of a covalent ligand for TRIM25 and its application to targeted protein ubiquitination” (Chemical Science, 2025)
The list shows a part of the results.

By UniProt entry, the sequences of proteins in these tests, tags left out. Where a name states a change or a piece, a line headed by the entry shows the natural chain unless it says otherwise.
UniProt Q684P5: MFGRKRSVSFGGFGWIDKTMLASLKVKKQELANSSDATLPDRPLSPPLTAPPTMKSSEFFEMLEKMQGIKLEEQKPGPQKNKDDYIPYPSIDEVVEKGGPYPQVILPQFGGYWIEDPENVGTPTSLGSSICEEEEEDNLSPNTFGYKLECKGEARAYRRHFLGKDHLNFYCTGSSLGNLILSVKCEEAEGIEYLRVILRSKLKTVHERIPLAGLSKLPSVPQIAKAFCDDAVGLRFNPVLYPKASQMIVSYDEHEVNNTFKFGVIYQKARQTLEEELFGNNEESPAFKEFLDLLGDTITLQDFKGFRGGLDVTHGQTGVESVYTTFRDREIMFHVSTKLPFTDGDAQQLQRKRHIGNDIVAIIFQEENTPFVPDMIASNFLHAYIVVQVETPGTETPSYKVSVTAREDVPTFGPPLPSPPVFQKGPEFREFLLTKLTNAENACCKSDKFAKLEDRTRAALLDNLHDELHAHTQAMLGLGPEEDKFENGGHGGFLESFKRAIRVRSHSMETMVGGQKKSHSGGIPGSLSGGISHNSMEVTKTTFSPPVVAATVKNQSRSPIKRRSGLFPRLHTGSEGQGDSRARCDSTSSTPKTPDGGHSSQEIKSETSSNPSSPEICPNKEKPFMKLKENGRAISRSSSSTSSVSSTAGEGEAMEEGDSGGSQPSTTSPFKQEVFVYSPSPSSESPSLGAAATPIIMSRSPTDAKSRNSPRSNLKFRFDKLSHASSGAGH
UniProt Q8IXT5: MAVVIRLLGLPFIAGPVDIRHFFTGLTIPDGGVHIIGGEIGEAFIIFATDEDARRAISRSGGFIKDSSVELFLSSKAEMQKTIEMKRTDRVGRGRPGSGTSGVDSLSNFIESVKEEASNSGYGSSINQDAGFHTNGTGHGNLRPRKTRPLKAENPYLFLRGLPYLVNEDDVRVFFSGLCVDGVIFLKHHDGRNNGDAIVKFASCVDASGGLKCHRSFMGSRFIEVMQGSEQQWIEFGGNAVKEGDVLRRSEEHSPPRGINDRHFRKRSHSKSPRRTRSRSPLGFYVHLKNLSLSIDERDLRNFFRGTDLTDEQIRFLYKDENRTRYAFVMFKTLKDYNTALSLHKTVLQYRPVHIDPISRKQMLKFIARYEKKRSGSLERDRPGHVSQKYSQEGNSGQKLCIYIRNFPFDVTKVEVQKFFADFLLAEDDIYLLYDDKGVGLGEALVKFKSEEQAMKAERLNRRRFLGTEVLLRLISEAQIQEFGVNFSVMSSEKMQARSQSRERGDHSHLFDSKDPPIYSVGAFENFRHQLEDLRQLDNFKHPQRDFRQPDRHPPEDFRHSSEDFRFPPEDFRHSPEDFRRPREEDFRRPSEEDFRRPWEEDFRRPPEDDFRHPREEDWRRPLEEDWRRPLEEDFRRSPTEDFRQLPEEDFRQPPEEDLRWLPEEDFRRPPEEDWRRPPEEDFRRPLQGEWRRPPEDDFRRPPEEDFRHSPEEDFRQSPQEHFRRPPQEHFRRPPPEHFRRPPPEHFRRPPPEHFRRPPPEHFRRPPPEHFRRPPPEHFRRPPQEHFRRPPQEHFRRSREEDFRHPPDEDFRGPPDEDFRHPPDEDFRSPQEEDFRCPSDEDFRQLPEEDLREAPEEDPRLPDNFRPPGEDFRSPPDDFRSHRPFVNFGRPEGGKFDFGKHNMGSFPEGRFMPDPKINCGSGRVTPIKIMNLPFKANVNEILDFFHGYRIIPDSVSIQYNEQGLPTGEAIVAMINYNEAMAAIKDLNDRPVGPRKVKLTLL
UniProt Q9UJF2: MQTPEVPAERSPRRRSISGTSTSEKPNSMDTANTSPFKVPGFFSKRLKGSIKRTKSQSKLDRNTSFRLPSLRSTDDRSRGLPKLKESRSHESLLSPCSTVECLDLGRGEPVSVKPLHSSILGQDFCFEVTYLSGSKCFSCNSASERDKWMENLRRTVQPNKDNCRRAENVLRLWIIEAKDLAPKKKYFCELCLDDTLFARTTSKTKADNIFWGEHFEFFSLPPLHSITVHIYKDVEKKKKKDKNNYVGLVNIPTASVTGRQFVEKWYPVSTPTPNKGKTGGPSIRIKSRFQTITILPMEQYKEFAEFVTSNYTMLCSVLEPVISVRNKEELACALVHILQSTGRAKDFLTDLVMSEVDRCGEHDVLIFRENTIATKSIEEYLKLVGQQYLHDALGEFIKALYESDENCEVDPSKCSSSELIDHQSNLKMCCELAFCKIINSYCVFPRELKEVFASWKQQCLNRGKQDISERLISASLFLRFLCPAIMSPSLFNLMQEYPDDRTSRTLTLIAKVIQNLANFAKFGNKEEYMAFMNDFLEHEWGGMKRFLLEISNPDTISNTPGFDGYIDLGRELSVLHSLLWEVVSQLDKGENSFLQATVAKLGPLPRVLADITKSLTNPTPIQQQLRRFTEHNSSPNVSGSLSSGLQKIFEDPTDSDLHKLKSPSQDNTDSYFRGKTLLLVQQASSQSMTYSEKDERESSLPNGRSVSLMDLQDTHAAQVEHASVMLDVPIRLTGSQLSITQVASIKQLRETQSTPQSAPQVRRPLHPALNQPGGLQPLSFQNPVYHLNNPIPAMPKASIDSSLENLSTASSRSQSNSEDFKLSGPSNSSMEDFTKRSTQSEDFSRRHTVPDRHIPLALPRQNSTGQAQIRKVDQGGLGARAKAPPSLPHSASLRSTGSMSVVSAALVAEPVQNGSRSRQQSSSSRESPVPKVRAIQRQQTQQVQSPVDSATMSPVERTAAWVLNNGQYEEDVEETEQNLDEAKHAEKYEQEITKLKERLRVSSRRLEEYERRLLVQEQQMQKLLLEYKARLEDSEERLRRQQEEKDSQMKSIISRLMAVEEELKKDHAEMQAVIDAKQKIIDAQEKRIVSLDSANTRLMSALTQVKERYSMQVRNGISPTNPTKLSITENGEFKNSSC
UniProt P06400: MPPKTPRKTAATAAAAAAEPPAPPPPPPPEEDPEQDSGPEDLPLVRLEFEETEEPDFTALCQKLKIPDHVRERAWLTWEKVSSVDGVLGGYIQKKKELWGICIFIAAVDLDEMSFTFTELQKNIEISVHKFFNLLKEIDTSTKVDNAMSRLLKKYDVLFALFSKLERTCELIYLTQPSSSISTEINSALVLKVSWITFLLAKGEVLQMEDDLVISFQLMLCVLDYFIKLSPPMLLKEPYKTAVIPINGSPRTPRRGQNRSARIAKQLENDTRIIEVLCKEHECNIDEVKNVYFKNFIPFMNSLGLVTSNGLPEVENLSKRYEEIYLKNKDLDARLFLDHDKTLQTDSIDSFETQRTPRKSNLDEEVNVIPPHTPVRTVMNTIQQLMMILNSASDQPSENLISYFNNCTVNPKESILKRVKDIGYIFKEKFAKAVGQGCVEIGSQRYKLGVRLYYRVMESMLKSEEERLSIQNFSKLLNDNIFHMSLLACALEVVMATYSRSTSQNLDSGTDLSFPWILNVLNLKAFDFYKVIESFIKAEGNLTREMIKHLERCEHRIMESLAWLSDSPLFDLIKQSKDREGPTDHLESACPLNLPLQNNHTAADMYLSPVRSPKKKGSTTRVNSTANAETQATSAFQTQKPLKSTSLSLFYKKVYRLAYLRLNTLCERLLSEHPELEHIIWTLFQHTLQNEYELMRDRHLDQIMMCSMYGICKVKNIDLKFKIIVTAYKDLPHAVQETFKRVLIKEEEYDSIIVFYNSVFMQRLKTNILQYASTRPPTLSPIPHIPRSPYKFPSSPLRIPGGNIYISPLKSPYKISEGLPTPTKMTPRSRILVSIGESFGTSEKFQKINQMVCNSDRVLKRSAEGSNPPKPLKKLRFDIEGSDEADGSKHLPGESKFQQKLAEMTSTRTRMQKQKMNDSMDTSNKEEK
UniProt Q86U06: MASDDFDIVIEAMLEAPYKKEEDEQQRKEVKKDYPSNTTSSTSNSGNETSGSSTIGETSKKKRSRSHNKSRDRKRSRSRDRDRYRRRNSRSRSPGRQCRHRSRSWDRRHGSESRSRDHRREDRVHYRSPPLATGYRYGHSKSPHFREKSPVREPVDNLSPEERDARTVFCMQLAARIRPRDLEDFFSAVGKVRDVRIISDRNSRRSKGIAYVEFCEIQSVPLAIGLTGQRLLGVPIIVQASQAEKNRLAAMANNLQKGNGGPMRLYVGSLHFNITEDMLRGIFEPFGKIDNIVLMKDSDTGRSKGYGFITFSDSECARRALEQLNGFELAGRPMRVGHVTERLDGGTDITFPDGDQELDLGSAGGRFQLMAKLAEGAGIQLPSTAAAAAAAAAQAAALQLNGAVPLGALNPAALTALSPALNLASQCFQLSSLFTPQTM
UniProt Q9NW64: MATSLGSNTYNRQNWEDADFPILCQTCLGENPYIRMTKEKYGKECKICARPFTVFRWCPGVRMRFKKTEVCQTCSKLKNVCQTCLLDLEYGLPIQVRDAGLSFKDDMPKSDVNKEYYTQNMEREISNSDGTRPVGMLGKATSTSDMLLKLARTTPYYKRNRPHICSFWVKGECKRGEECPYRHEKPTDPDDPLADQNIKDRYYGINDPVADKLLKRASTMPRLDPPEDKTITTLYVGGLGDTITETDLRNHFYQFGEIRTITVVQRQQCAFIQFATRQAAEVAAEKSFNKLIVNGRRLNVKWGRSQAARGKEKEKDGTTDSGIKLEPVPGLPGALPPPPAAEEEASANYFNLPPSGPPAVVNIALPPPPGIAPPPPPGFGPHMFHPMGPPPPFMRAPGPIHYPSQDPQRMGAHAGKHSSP
UniProt P61224: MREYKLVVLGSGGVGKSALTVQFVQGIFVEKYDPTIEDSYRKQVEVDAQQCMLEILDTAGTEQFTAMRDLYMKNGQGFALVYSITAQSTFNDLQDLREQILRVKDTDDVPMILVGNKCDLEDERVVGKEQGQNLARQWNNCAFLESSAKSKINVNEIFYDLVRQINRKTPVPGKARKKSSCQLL
UniProt Q9P258, whole entry, looked up: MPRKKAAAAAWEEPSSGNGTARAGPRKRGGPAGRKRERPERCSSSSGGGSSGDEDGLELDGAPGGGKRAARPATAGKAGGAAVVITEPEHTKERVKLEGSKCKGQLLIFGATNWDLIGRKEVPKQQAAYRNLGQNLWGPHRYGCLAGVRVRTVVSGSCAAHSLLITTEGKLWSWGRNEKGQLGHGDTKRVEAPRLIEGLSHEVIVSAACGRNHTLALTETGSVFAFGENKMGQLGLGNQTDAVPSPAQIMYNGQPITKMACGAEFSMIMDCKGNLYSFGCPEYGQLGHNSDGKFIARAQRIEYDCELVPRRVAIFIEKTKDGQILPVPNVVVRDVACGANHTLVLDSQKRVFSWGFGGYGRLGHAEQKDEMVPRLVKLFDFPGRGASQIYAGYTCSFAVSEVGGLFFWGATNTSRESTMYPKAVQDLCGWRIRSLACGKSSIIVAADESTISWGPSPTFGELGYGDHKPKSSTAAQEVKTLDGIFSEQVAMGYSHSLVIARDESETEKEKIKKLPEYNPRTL
UniProt Q5TC82: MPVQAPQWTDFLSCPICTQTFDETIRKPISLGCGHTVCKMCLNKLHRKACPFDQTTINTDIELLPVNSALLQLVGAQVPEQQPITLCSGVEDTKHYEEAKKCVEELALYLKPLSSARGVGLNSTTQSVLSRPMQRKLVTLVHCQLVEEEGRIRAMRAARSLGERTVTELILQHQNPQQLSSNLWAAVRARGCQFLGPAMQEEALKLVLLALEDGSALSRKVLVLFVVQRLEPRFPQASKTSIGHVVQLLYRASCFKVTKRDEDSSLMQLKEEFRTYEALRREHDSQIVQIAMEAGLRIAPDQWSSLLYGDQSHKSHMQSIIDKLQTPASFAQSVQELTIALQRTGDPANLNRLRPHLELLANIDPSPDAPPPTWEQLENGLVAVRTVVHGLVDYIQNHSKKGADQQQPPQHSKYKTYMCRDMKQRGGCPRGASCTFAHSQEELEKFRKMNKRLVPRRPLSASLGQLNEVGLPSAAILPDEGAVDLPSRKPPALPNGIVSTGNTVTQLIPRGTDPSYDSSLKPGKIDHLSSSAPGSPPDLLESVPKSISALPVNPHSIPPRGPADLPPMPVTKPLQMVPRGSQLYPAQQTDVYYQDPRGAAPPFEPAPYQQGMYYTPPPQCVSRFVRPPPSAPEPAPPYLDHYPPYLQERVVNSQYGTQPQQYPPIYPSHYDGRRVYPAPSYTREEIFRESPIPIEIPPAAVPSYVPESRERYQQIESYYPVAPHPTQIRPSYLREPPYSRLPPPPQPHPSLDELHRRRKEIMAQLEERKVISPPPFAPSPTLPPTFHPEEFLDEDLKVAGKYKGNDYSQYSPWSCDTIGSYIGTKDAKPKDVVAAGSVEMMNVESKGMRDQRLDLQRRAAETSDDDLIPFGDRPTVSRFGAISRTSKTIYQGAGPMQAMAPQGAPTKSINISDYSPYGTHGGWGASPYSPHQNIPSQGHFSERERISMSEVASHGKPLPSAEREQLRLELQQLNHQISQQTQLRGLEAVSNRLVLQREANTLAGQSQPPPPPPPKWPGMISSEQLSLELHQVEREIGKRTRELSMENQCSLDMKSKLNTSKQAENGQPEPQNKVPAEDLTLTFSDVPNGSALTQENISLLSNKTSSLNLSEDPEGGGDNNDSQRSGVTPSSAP

compound: CC1Cc2ccccc2N1C(=O)C1CCCN(C1)C(=O)CCl (mixture of isomers) [TRIM25 ligand 11 (diastereomer mixture)]; assay: probe-labelled cysteine peptide fold change vs DMSO (competition) (log2 fold change); higher = less target engagement (more negative = stronger competition); conditions: 10 µM; THP-1; incubation time: 4 h
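Also: competitive chemoproteomic profiling in live THP-1 cells with an iodoacetamide desthiobiotin (IA-DTB) probe, comparing probe-labelled peptide intensities in compound-treated cells against DMSO-treated controls.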

Row | Target | probe-labelled cysteine peptide fold change
1 | RARS_P54136_638_MLLCEAVAAVMAK (UniProt P54136) | -0.0816
2 | RASA2_Q15283_436_SCEIDPIK (UniProt Q15283) | 0.0172
3 | RANGAP1_P46060_169_ILAAALTECHRK (UniProt P46060) | -0.233
4 | RBBP7_Q16576_202_EGYGLSWNSNLSGHLLSASDDHTVCLWDINAGPK (UniProt Q16576) | 0.0782
5 | RANBP2_P49792_1552_EGQWDCSSCLVR (UniProt P49792) | -0.0598
6 | RBM34_P42696_310_HFLDCGSIMAVR (UniProt P42696) | 0.227
7 | RANBP10_Q6VN20_610_AGLGSCSFAR (UniProt Q6VN20) | 0.00513
8 | RBBP5_Q15291_126_VLVCPMK (UniProt Q15291) | 0.0417
9 | RBBP6_Q7Z6E9_280+283_DIMTDAVVIPCCGNSYCDECIR (UniProt Q7Z6E9) | -0.45
10 | RAD9A_Q99638_3_CLVTGGNVK (UniProt Q99638) | 0.0691
11 | RAP1GAP2_Q684P5_584_CDSTSSTPK (UniProt Q684P5) | -0.0122
12 | RANBP3_Q9H6Z4_406_VEVITGEEAESNVLQMQCK (UniProt Q9H6Z4) | 0.0311
13 | RBM12B_Q8IXT5_204_FASCVDASGGLK (UniProt Q8IXT5) | 0.00934
14 | RAVER1_Q8IY67_297_VSFCAPGPPGR (UniProt Q8IY67) | 0.0248
15 | RASAL2_Q9UJF2_333_NKEELACALVHILQSTGR (UniProt Q9UJF2) | 0.0398
16 | RB1_P06400_706_HLDQIMMCSMYGICK (UniProt P06400) | 0.206
17 | RAPGEF1_Q13905_817_CATSSQPLAAR (UniProt Q13905) | -0.0112
18 | RAN_P62826_112_VCENIPIVLCGNK (UniProt P62826) | -0.00181
19 | RBBP7_Q16576_97_VHIPNDDAQFDASHCDSDK (UniProt Q16576) | 0.0768

Row | Target | probe-labelled cysteine peptide fold change
20 | RBL2_Q08999_635_ADEICIAGSPLTPR (UniProt Q08999) | -0.151
21 | RASA1_P20936_616_HFTNPYCNIYLNSVQVAK (UniProt P20936) | -0.0173
22 | RBM23_Q86U06_316_GYGFITFSDSECAR (UniProt Q86U06) | 0.211
23 | RBBP4_Q09028_278_PSHSVDAHTAEVNCLSFNPYSEFILATGSADK (UniProt Q09028) | 0.24
24 | RBM22_Q9NW64_179_RGEECPYR (UniProt Q9NW64) | -0.088
25 | RARS2_Q5T160_576_LLGITPVCR (UniProt Q5T160) | -0.0243
26 | RAP1B_P61224_51_QVEVDAQQCMLEILDTAGTEQFTAMR (UniProt P61224) | -0.00531
27 | RBBP4_Q09028_203_EGYGLSWNPNLSGHLLSASDDHTICLWDISAVPK (UniProt Q09028) | 0.0702
28 | RANBP6_O60518_952_SLCSEAVPLLVK (UniProt O60518) | -0.00362
29 | RBBP5_Q15291_233_EILTCGR (UniProt Q15291) | 0.0914
30 | RCE1_Q9Y256_314_LYGSLPLCVLLER (UniProt Q9Y256) | 0.182
31 | RCC2_Q9P258_305_IEYDCELVPR (UniProt Q9P258) | 0.0696
32 | RC3H1_Q5TC82_1049_ELSMENQCSLDMK (UniProt Q5TC82) | -0.249
33 | RAPGEF6_Q8TEU7_522_LLNIACAAK (UniProt Q8TEU7) | 0.00415
34 | RAP1A_P62834_139+141_QWCNCAFLESSAK (UniProt P62834) | -0.0878
35 | RARS2_Q5T160_489_LHSLEETFGCGYLNDFNTACLQEPQSVSILQHLLR (UniProt Q5T160) | 0.382
36 | RBM12B_Q8IXT5_837_CPSDEDFR (UniProt Q8IXT5) | 0.191
37 | RANBP3_Q9H6Z4_228_SPSEAADEVCALEEK (UniProt Q9H6Z4) | 0.276

same assay, conditions: 50 µM; THP-1; incubation time: 4 h

Row | Target | probe-labelled cysteine peptide fold change
38 | RARS_P54136_638_MLLCEAVAAVMAK (UniProt P54136) | 0.17
39 | RASA2_Q15283_436_SCEIDPIK (UniProt Q15283) | -0.0986
40 | RANGAP1_P46060_169_ILAAALTECHRK (UniProt P46060) | -0.242
41 | RBBP7_Q16576_202_EGYGLSWNSNLSGHLLSASDDHTVCLWDINAGPK (UniProt Q16576) | -0.152
42 | RANBP2_P49792_1552_EGQWDCSSCLVR (UniProt P49792) | 0.00525
43 | RBM34_P42696_310_HFLDCGSIMAVR (UniProt P42696) | 0.222
44 | RANBP10_Q6VN20_610_AGLGSCSFAR (UniProt Q6VN20) | 0.0994
45 | RBBP5_Q15291_126_VLVCPMK (UniProt Q15291) | 0.15
46 | RBBP6_Q7Z6E9_280+283_DIMTDAVVIPCCGNSYCDECIR (UniProt Q7Z6E9) | -0.0457
47 | RAD9A_Q99638_3_CLVTGGNVK (UniProt Q99638) | 0.0993
48 | RAP1GAP2_Q684P5_584_CDSTSSTPK (UniProt Q684P5) | 0.00393
49 | RANBP3_Q9H6Z4_406_VEVITGEEAESNVLQMQCK (UniProt Q9H6Z4) | 0.26
50 | RBM12B_Q8IXT5_204_FASCVDASGGLK (UniProt Q8IXT5) | -0.051
51 | RAVER1_Q8IY67_297_VSFCAPGPPGR (UniProt Q8IY67) | 0.0311
52 | RASAL2_Q9UJF2_333_NKEELACALVHILQSTGR (UniProt Q9UJF2) | 0.0203
53 | RB1_P06400_706_HLDQIMMCSMYGICK (UniProt P06400) | 0.476
54 | RAPGEF1_Q13905_817_CATSSQPLAAR (UniProt Q13905) | -0.122
55 | RAN_P62826_112_VCENIPIVLCGNK (UniProt P62826) | 0.089
56 | RBBP7_Q16576_97_VHIPNDDAQFDASHCDSDK (UniProt Q16576) | 0.0312

Row | Target | probe-labelled cysteine peptide fold change
57 | RBL2_Q08999_635_ADEICIAGSPLTPR (UniProt Q08999) | -0.271
58 | RASA1_P20936_616_HFTNPYCNIYLNSVQVAK (UniProt P20936) | -0.157
59 | RBM23_Q86U06_316_GYGFITFSDSECAR (UniProt Q86U06) | 0.111
60 | RBBP4_Q09028_278_PSHSVDAHTAEVNCLSFNPYSEFILATGSADK (UniProt Q09028) | 0.154
61 | RBM22_Q9NW64_179_RGEECPYR (UniProt Q9NW64) | 0.0543
62 | RARS2_Q5T160_576_LLGITPVCR (UniProt Q5T160) | -0.117
63 | RAP1B_P61224_51_QVEVDAQQCMLEILDTAGTEQFTAMR (UniProt P61224) | -0.107
64 | RBBP4_Q09028_203_EGYGLSWNPNLSGHLLSASDDHTICLWDISAVPK (UniProt Q09028) | -0.149
65 | RANBP6_O60518_952_SLCSEAVPLLVK (UniProt O60518) | -0.161
66 | RBBP5_Q15291_233_EILTCGR (UniProt Q15291) | 0.171
67 | RCE1_Q9Y256_314_LYGSLPLCVLLER (UniProt Q9Y256) | 0.0157
68 | RCC2_Q9P258_305_IEYDCELVPR (UniProt Q9P258) | 0.115
69 | RC3H1_Q5TC82_1049_ELSMENQCSLDMK (UniProt Q5TC82) | -0.555
70 | RAPGEF6_Q8TEU7_522_LLNIACAAK (UniProt Q8TEU7) | -0.0843
71 | RAP1A_P62834_139+141_QWCNCAFLESSAK (UniProt P62834) | 0.0826
72 | RARS2_Q5T160_489_LHSLEETFGCGYLNDFNTACLQEPQSVSILQHLLR (UniProt Q5T160) | 0.0781
73 | RBM12B_Q8IXT5_837_CPSDEDFR (UniProt Q8IXT5) | 0.083
74 | RANBP3_Q9H6Z4_228_SPSEAADEVCALEEK (UniProt Q9H6Z4) | -0.174
